PubChem BioAssay AID1053208 | Peter MacCallum Cancer Centre – 2014
The deposit covers about 17,000 reagents; shown is a random part of them. Over the whole deposit, 788 (4.7%) are marked active. 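Calls rest on z-score classes alone; an extra cut-off of viability at most 70% of control was not applied to them.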 A reagent listed more than once was tested more than once; the source does not tell the runs apart. Further read-outs or replicates are left out here.

- Purpose: 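Synthetic lethal interactions between gene loss and doxorubicin in osteosarcoma cells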 (primary screen)
- Cell system: mouse osteosarcoma cells, early-passage culture from an engineered mouse model of fibroblastic bone tumour
- Reagents: siRNA pool against mouse genes, 40 nM
- Duration: about 120 h (48 h before drug, then 72 h with drug)
- Challenge: doxorubicin 100 nM for 72 h, roughly 30-40% inhibitory dose
- Measured: 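Luminescent ATP signal taken as viability with or without 100 nM doxorubicin for 72 h; mean of two wells set against non-targeting siRNA and turned into robust z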
- Scale: viability z-score with doxorubicin: higher = more viable cells under doxorubicin; viability z-score without drug: higher = more viable cells with knock-down alone
- Active means: 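Called active if knock-down leaves viability unchanged without drug (z within -2 to 2) but lowers it with doxorubicin (z at or under -2)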

{"gene symbol": "Zfp449 (GeneID 78619)", "PubChem SID": "SID152313335", "combined z-score class": "no change with or without drug", "viability z-score with doxorubicin": 1.8, "viability z-score without drug": -0.17, "Outcome": "inactive"}
{"gene symbol": "Galnt13 (GeneID 271786)", "PubChem SID": "SID152303350", "combined z-score class": "no change with or without drug", "viability z-score with doxorubicin": 0, "viability z-score without drug": 0.17, "Outcome": "inactive"}
{"gene symbol": "Tnni3 (GeneID 21954)", "PubChem SID": "SID152325642", "combined z-score class": "no change with or without drug", "viability z-score with doxorubicin": 0.22, "viability z-score without drug": 0.51, "Outcome": "inactive"}
{"gene symbol": "Cdc42ep5 (GeneID 58804)", "PubChem SID": "SID152329106", "combined z-score class": "no change with or without drug", "viability z-score with doxorubicin": -0.22, "viability z-score without drug": 0.51, "Outcome": "inactive"}
{"gene symbol": "Supt3 (GeneID 109115)", "PubChem SID": "SID152319495", "combined z-score class": "no change with or without drug", "viability z-score with doxorubicin": 0.79, "viability z-score without drug": 0, "Outcome": "inactive"}
{"gene symbol": "Mmrn1 (GeneID 70945)", "PubChem SID": "SID152284917", "combined z-score class": "no change with or without drug", "viability z-score with doxorubicin": 1.12, "viability z-score without drug": 1.69, "Outcome": "inactive"}
{"gene symbol": "Chst12 (GeneID 59031)", "PubChem SID": "SID152292372", "combined z-score class": "no change with or without drug", "viability z-score with doxorubicin": -1.8, "viability z-score without drug": 0.51, "Outcome": "inactive"}
{"gene symbol": "4833420G17Rik (GeneID 67392)", "PubChem SID": "SID152329172", "combined z-score class": "no change with or without drug", "viability z-score with doxorubicin": 0, "viability z-score without drug": 0.51, "Outcome": "inactive"}
{"gene symbol": "Zfp697 (GeneID 242109)", "PubChem SID": "SID152342806", "combined z-score class": "no change with or without drug", "viability z-score with doxorubicin": -0.22, "viability z-score without drug": 0, "Outcome": "inactive"}
{"gene symbol": "Zmpste24 (GeneID 230709)", "PubChem SID": "SID152312029", "combined z-score class": "no change with or without drug", "viability z-score with doxorubicin": 0.56, "viability z-score without drug": -1.52, "Outcome": "inactive"}
{"gene symbol": "Chac1 (GeneID 69065)", "PubChem SID": "SID152313559", "combined z-score class": "high cell count without drug only", "viability z-score with doxorubicin": -0.67, "viability z-score without drug": 3.04, "Outcome": "inactive"}
{"gene symbol": "Zic5 (GeneID 65100)", "PubChem SID": "SID152271099", "combined z-score class": "high cell count with doxorubicin only", "viability z-score with doxorubicin": 2.02, "viability z-score without drug": 0.84, "Outcome": "inactive"}
{"gene symbol": "Cacng2 (GeneID 12300)", "PubChem SID": "SID152262277", "combined z-score class": "no change with or without drug", "viability z-score with doxorubicin": 1.24, "viability z-score without drug": 1.69, "Outcome": "inactive"}
{"gene symbol": "Fbxl12 (GeneID 30843)", "PubChem SID": "SID152288645", "combined z-score class": "no change with or without drug", "viability z-score with doxorubicin": -1.24, "viability z-score without drug": 0.67, "Outcome": "inactive"}
{"gene symbol": "Cyb561 (GeneID 13056)", "PubChem SID": "SID152306385", "combined z-score class": "no change with or without drug", "viability z-score with doxorubicin": 0.67, "viability z-score without drug": -0.51, "Outcome": "inactive"}
{"gene symbol": "Kazald1 (GeneID 107250)", "PubChem SID": "SID152323830", "combined z-score class": "no change with or without drug", "viability z-score with doxorubicin": -0.9, "viability z-score without drug": 0, "Outcome": "inactive"}
{"gene symbol": "Foxj1 (GeneID 15223)", "PubChem SID": "SID152276689", "combined z-score class": "high cell count without drug only", "viability z-score with doxorubicin": 1.35, "viability z-score without drug": 2.53, "Outcome": "inactive"}
{"gene symbol": "Kpna6 (GeneID 16650)", "PubChem SID": "SID152275283", "combined z-score class": "no change with or without drug", "viability z-score with doxorubicin": -1.12, "viability z-score without drug": -1.85, "Outcome": "inactive"}
{"gene symbol": "Or12d12 (GeneID 258831)", "PubChem SID": "SID152269534", "combined z-score class": "no change with or without drug", "viability z-score with doxorubicin": -1.35, "viability z-score without drug": -0.51, "Outcome": "inactive"}
{"gene symbol": "Ldlrad3 (GeneID 241576)", "PubChem SID": "SID152268746", "combined z-score class": "no change with or without drug", "viability z-score with doxorubicin": 0, "viability z-score without drug": -0.17, "Outcome": "inactive"}
{"gene symbol": "Clec4n (GeneID 56620)", "PubChem SID": "SID152343056", "combined z-score class": "no change with or without drug", "viability z-score with doxorubicin": -1.35, "viability z-score without drug": -0.34, "Outcome": "inactive"}
{"gene symbol": "Pfpl (GeneID 56093)", "PubChem SID": "SID152331645", "combined z-score class": "low cell count with doxorubicin only", "viability z-score with doxorubicin": -2.81, "viability z-score without drug": -0.84, "Outcome": "active"}
{"gene symbol": "Arhgap32 (GeneID 330914)", "PubChem SID": "SID152301088", "combined z-score class": "no change with or without drug", "viability z-score with doxorubicin": -0.22, "viability z-score without drug": 0.17, "Outcome": "inactive"}
{"gene symbol": "Fmo2 (GeneID 55990)", "PubChem SID": "SID152298384", "combined z-score class": "no change with or without drug", "viability z-score with doxorubicin": 0.22, "viability z-score without drug": 0.17, "Outcome": "inactive"}
{"gene symbol": "Ccdc33 (GeneID 382077)", "PubChem SID": "SID152270652", "combined z-score class": "high cell count without drug only", "viability z-score with doxorubicin": 0.56, "viability z-score without drug": 2.36, "Outcome": "inactive"}
{"gene symbol": "Popdc3 (GeneID 78977)", "PubChem SID": "SID152291661", "combined z-score class": "no change with or without drug", "viability z-score with doxorubicin": -0.45, "viability z-score without drug": 0.34, "Outcome": "inactive"}
{"gene symbol": "Zbtb38 (GeneID 245007)", "PubChem SID": "SID152270891", "combined z-score class": "no change with or without drug", "viability z-score with doxorubicin": 0.34, "viability z-score without drug": 0.34, "Outcome": "inactive"}
{"gene symbol": "Vill (GeneID 22351)", "PubChem SID": "SID152314358", "combined z-score class": "no change with or without drug", "viability z-score with doxorubicin": 0.22, "viability z-score without drug": 1.52, "Outcome": "inactive"}
{"gene symbol": "Dlgap4 (GeneID 228836)", "PubChem SID": "SID152292423", "combined z-score class": "no change with or without drug", "viability z-score with doxorubicin": -0.22, "viability z-score without drug": 0.51, "Outcome": "inactive"}
{"gene symbol": "Chmp4c (GeneID 66371)", "PubChem SID": "SID152300161", "combined z-score class": "no change with or without drug", "viability z-score with doxorubicin": 0.34, "viability z-score without drug": 1.18, "Outcome": "inactive"}
{"gene symbol": "Camk4 (GeneID 12326)", "PubChem SID": "SID152291404", "combined z-score class": "no change with or without drug", "viability z-score with doxorubicin": 0.67, "viability z-score without drug": -1.18, "Outcome": "inactive"}
{"gene symbol": "Camk4 (GeneID 12326)", "PubChem SID": "SID152291404", "combined z-score class": "no change with or without drug", "viability z-score with doxorubicin": 1.01, "viability z-score without drug": -0.17, "Outcome": "inactive"}
{"gene symbol": "Dhx15 (GeneID 13204)", "PubChem SID": "SID152263814", "combined z-score class": "no change with or without drug", "viability z-score with doxorubicin": 1.12, "viability z-score without drug": 1.18, "Outcome": "inactive"}
{"gene symbol": "Ubfd1 (GeneID 28018)", "PubChem SID": "SID152274479", "combined z-score class": "no change with or without drug", "viability z-score with doxorubicin": -0.22, "viability z-score without drug": 0.34, "Outcome": "inactive"}
{"gene symbol": "Emc10 (GeneID 69683)", "PubChem SID": "SID152301957", "combined z-score class": "low cell count with doxorubicin only", "viability z-score with doxorubicin": -2.02, "viability z-score without drug": -1.52, "Outcome": "active"}
{"gene symbol": "Ptprr (GeneID 19279)", "PubChem SID": "SID152261988", "combined z-score class": "no change with or without drug", "viability z-score with doxorubicin": 1.12, "viability z-score without drug": -0.51, "Outcome": "inactive"}
